Results are given in words; binding and its absence hold for the method and conditions named. A result given as binding can be weak or reduced; the word gives no strength.
biological target: ^15N labeled FLNA repeat 21; experiment: NMR titration; 2D 1H-15N HSQC of 15N labeled FLNA repeat 21 with peptide; Bruker Advance 600 MHz spectrometer with cryoprobe; both purified

binding	Binder
binds	MASKPEKRVASSVFITLAPPRRDVRRRRRRRRR [WTMigfilinR9 peptide]
binds	MASKPEKRVADSAFITLAPPRRDVRRRRRRRRR [MTMigfilinR9 peptide]
binds	WDTGENPIYKSAVTTVVNPKYEGK [integrin β1 CT peptide]
